Laboratory results as given in PMC12362252.
Residue numbers refer to the chain shown, from its start. Results are given in words; binding and its absence hold for the method and conditions named. Binding seen in cells or lysates may run through a third protein. A result given as binding can be weak or reduced; the word gives no strength. Where a sequence is shown, tags or fusion partners need not be part of it.

Sequences of proteins named here, by UniProt entry; tags and fusion partners are left off. A change or cut given only in a name is not applied to a line headed by its entry.
UniProt H2KYR1: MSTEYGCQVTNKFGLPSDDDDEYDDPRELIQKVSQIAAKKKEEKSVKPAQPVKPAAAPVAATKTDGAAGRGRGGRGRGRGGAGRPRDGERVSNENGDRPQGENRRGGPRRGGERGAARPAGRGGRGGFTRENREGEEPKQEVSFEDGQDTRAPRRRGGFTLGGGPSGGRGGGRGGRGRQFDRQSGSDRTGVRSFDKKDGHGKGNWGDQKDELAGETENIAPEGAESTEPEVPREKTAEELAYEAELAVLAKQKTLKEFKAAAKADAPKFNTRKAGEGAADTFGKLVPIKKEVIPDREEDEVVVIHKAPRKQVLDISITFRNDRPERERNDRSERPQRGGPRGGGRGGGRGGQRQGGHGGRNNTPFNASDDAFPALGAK

How the values were obtained:
[1] = target: T1, 3X FLAG ADR-1 dsRBD1 (K223E, K224A, K227A) (C. elegans) (UniProt Q9U3D6); assay: co-IP; ADR-1 IP with anti-FLAG magnetic beads from lysates of L1 animals without UV crosslinking; 1 h at 4°C; washes with 0.5 M NaCl, 160 mM Tris-HCl pH 7.5, 0.1% NP-40, 0.25% Triton X-100; blot with VIG-1 antibody; animals treated with control or gsk-3 RNAi
T1 sequence: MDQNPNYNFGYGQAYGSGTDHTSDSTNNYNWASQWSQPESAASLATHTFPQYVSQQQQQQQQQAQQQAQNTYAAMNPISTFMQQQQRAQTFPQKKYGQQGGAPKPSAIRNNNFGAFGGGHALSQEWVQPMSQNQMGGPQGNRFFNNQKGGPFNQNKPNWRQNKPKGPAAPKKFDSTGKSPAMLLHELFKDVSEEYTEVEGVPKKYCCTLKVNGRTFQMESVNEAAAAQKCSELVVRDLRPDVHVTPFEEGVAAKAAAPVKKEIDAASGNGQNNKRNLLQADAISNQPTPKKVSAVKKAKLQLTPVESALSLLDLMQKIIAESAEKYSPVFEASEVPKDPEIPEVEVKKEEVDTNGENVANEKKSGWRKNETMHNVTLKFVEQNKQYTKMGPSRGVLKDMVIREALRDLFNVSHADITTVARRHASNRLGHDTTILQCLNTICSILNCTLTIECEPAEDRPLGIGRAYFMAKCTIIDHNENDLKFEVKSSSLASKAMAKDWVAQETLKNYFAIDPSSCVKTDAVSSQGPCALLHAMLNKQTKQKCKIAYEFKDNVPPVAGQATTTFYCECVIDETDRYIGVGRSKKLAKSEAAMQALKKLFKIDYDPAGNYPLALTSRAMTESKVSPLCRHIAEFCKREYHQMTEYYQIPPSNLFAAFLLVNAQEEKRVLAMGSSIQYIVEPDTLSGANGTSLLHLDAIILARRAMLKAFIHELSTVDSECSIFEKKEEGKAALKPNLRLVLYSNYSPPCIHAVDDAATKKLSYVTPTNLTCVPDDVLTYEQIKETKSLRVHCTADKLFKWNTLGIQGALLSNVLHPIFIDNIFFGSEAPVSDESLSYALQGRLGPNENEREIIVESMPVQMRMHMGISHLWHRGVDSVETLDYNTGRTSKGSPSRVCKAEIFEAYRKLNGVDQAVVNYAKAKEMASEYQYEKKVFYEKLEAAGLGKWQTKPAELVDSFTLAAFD

[2] = target: T2, 3X FLAG ADR-1 (C. elegans) (UniProt Q9U3D6); assay: as above
T2 sequence: T1 sequence with E223K, A224K, A227K

binding [1]: binds
binding [2]: binds
Substance: VIG-1 (from UniProt H2KYR1)
